Earlier results on nine compounds are cited in US20210186070A1, “STEVIA EXTRACT CONTAINING SELECTED STEVIOL GLYCOSIDES AS FLAVOR, SALTY AND SWEETNESS PROFILE MODIFIER” (PureCircle USA Inc., priority 2013, published 2021).

For this data set the following is noted: Table 1.
For `C=C1C[C@@]23CC[C@H]4[C@@](C)(CCC[C@@]4(C)C(=O)O[C@@H]4O[C@H](CO)[C@@H](O)[C@H](O)[C@H]4O)[C@@H]2CC[C@]1(O[C@@H]1O[C@H](CO)[C@@H](O)[C@H](O)[C@H]1O[C@@H]1O[C@@H](C)[C@H](O)[C@@H](O)[C@H]1O)C3` [Dulcoside A], the Quality of taste entry is given as “Very bitter”.

As to `C=C1C[C@@]23CC[C@H]4[C@@](C)(CCC[C@@]4(C)C(=O)O[C@@H]4O[C@H](CO)[C@@H](O)[C@H](O)[C@H]4O[C@@H]4O[C@H](CO)[C@@H](O)[C@H](O)[C@H]4O)[C@@H]2CC[C@]1(O[C@@H]1O[C@H](CO)[C@@H](O)[C@H](O[C@@H]2O[C@H](CO)[C@@H](O)[C@H](O)[C@H]2O)[C@H]1O[C@@H]1O[C@H](CO)[C@@H](O)[C@H](O)[C@H]1O)C3` [Rebaudioside D], the Quality of taste result is “Like sucrose”. On to `C=C1C[C@@]23CC[C@H]4[C@@](C)(CCC[C@@]4(C)C(=O)O[C@@H]4O[C@H](CO)[C@@H](O)[C@H](O)[C@H]4O[C@@H]4O[C@H](CO)[C@@H](O)[C@H](O)[C@H]4O)[C@@H]2CC[C@]1(O[C@@H]1O[C@H](CO)[C@@H](O)[C@H](O)[C@H]1O[C@@H]1O[C@H](CO)[C@@H](O)[C@H](O)[C@H]1O)C3` [Rebaudioside E], for which the Quality of taste entry is “Like sucrose”. Take `C=C1C[C@@]23CC[C@H]4[C@@](C)(CCC[C@@]4(C)C(=O)O[C@@H]4O[C@H](CO)[C@@H](O)[C@H](O)[C@H]4O)[C@@H]2CC[C@]1(O[C@@H]1O[C@H](CO)[C@@H](O)[C@H](O)[C@H]1O)C3` [Rubusoside]: the Quality of taste entry is on record as “Very bitter”. Turning to `C=C1C[C@@]23CC[C@H]4[C@@](C)(CCC[C@@]4(C)C(=O)O)[C@@H]2CC[C@]1(O)C3` [Steviol], the Quality of taste entry is given as “Very bitter”. On to `C=C1C[C@@]23CC[C@H]4[C@@](C)(CCC[C@@]4(C)C(=O)O)[C@@H]2CC[C@]1(O[C@@H]1O[C@H](CO)[C@@H](O)[C@H](O)[C@H]1O[C@@H]1O[C@H](CO)[C@@H](O)[C@H](O)[C@H]1O)C3` [Steviolbioside], for which the Quality of taste entry is listed as “Unpleasant”. With `C=C1C[C@@]23CC[C@H]4[C@@](C)(CCC[C@@]4(C)C(=O)O[C@@H]4O[C@H](CO)[C@@H](O)[C@H](O)[C@H]4O)[C@@H]2CC[C@]1(O[C@@H]1O[C@H](CO)[C@@H](O)[C@H](O)[C@H]1O[C@@H]1O[C@H](CO)[C@@H](O)[C@H](O)[C@H]1O)C3` [Stevioside], the Quality of taste entry is on record as “Bitter”. As to Rebaudioside B, the Quality of taste result is “Bitter”. Take Rebaudioside C: the Quality of taste result was “Bitter”.
